# Article PMC8682772, “Negative feedback for DARS2–Fis complex by ATP–DnaA supports the cell cycle-coordinated regulation for chromosome replication” (Nucleic Acids Research, 2021)
# Positions count from the first letter of the chain named. The exact form of at least one protein or probe is not confirmed. A weaker result is weaker than the reference pair of the same experiment. Protein sequences can lack the tags named with them. For some assays here: At least one verdict was read from the data and is not stated in words by the source.
# Experiments:
# [1] = molecular target: T1, DnaA (Escherichia coli) (UniProt P03004); assay: EMSA; details: ATP, EMSA: 20 mM HEPES-KOH pH 7.6, 80 mM KCl, 1 mM EDTA, 4 mM DTT, 5 mM Mg acetate, 0.1 mg/ml BSA, 10% glycerol, 3 uM ATP or ADP, lambda-DNA competitor, 35 nM DNA, 30 C 5 min, recombinant protein
# T1 sequence (looked up, limits assumed): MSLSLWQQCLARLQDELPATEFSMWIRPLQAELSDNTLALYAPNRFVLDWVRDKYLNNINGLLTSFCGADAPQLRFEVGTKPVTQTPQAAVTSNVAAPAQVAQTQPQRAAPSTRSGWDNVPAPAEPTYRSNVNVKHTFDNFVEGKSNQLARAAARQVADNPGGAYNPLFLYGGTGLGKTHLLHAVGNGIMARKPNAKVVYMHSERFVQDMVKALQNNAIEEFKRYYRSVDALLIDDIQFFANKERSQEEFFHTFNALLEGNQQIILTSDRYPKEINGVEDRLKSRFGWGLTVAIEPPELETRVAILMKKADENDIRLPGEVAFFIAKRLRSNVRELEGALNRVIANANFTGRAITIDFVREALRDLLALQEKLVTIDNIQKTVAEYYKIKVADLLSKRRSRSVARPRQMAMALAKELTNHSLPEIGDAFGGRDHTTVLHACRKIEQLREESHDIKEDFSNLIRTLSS
# [2] = molecular target: T2, DnaA R285A (Escherichia coli) (UniProt P03004); assay: EMSA; details: ATP, largely monomer, as ADP-DnaA; EMSA: 20 mM HEPES-KOH pH 7.6, 80 mM KCl, 1 mM EDTA, 4 mM DTT, 5 mM Mg acetate, 0.1 mg/ml BSA, 10% glycerol, 3 uM ATP or ADP, lambda-DNA competitor, 35 nM DNA, 30 C 5 min; recombinant protein
# T2 sequence (looked up, limits assumed): T1 sequence (looked up, limits assumed) with R285A
sequence,measurement,setting,value
GGGTTGGCGAAAGATCAACCAATGCCGTATTTATCCACAGAACGCGCCGCCA (double strand) [FBS2-5 subDnaA box V-a],binding result,[1]; all oligomers considerably inhibited,binds more weakly
GGGTTGGCGAAAGATCAACCGGCGCCGCATTTATCCACAGAATGTGCCACTA (double strand) [FBS2-5 subDnaA box V-b],binding result,[1]; trimer formation considerably inhibited,binds more weakly
GGGTTGGCGGGGGGCCGACCGGCGCCGCATTTATCCACAGAACGCGCCGCCA (double strand) [FBS2-5 subDnaA box V-abc],binding result,"[1]; no oligomers, box V binding retained",binds more weakly
TCATTAACTGTGAATGATCGGTGATCCTGGACCGTATAAGCTGGGATCAGAATGA (double strand) [oriC R5MI2 WT],binding result,[1]; reference for complexes up to C4,binds
GGGTTGGCGAAAGATCAACCAATGCCGTATTTATCCACAGAATGTGCCACTA (double strand) [FBS2-5 WT],binding result,[2],binds more weakly
